Measurements taken from patent publication US20170290821A1 (priority 2014, published 2017).

System: influenza virus A/WSN RG#1-1 strains
Assay: microbe, parasite or virus in culture
Assay type: cell-based
Conditions: unidentified influenza virus, HEK293, 48 h, read-out: IC50 (50% virus replication inhibitory concentration)

C[C@@H]1CCN(C(=O)CC#N)C[C@@H]1N(C)c1ncnc2[nH]ccc12 [Compound J1, 3-((3R,4R)-4-methyl-3-(methyl(7H-pyrrolo[2,3-d]pyrimidin-4-yl)amino)piperidin-1-yl)-3-oxopropanenitrile]
IC50: 31.6 µM
